No constants are given. Whether binding was seen depends on the method and setting. Some results given as binding are weak or reduced against the parent protein; the word gives no strength.
Columns and labels:
[1] = biological target: mutant human RAGE (82S) (human) (UniProt Q15109); assay: radioligand binding to transfected CHO cells, mutant against wild-type
[2] = biological target: mutant human RAGE (82S) (human) (UniProt Q15109); assay: radioligand binding to transfected CHO cells (summary in the discussion)
[3] = biological target: mutant human RAGE (82S) (human) (UniProt Q15109); assay: radioligand binding to transfected CHO cells (figure legend)

Chains of the proteins cited; added tags and fusions are not shown. Lines headed by an entry give the natural chain unless they say otherwise; changes in a name come on top. A line that says so, or that is headed by a name, gives the form on record, which may keep a tag or linker.
mutant human RAGE (82S) (Q15109, form named): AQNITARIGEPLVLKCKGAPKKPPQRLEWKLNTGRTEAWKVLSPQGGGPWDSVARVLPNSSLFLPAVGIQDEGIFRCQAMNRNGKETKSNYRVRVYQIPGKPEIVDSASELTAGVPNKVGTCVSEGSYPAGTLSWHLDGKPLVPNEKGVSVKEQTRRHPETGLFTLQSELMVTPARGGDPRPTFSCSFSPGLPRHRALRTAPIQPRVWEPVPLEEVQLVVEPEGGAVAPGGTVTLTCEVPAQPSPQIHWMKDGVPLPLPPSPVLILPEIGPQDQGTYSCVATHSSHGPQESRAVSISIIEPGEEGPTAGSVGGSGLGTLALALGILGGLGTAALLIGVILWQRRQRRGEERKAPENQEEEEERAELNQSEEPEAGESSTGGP

binding [1]: binds
binding [2]: binds
binding [3]: binds
B1: EN-RAGE (Extracellular Novel RAGE binding protein) (ligand, bovine, UniProt P79105 2-92, looked up)
chain: TKLEDHLEGIINIFHQYSVRVGHFDTLNKRELKQLITKELPKTLQNTKDQPTIDKIFQDLDADKDGAVSFEEFVVLVSRVLKTAHIDIHKE
modifications: radiolabelled with 125-I (Iodobeads) in the radioligand binding assays
